This is one part of the list. The signal is at background level for most entries.
Tests used:
Assay in all cases: fluorescence intensity of antibody binding to polysaccharide-coupled beads; higher = stronger binding
[1] = biological target: pneumococcal polysaccharide Pn25A
Procedure: (§1)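 Recombinant rhesus-murine chimeric IgG1 antibodies were tested against antigen-coupled MagPlex beads in a 96-plex Luminex direct immunoassay (dLIA). The beads carried pneumococcal capsular polysaccharides of 93 serotypes plus C-polysaccharides. Antibody was added at 0.1–12,500 ng/mL for 1 h, then PE anti-mouse IgG, and net MFI was read on a Bio-Plex 3D. Only the rhesus variable regions are printed; constant regions are murine IgG1/kappa/lambda, and the signal peptide is MGWSCIILFLVATATGVHS.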

[2] = biological target: pneumococcal polysaccharide Pn25F
Procedure: as §1

[3] = biological target: pneumococcal polysaccharide Pn27
Procedure: as §1

[4] = biological target: pneumococcal polysaccharide Pn28A
Procedure: as §1

[5] = biological target: pneumococcal polysaccharide Pn28F
Procedure: as §1

[6] = biological target: pneumococcal polysaccharide Pn29
Procedure: as §1

[7] = biological target: pneumococcal polysaccharide Pn3
Procedure: as §1

[8] = biological target: pneumococcal polysaccharide Pn31
Procedure: as §1

[9] = biological target: pneumococcal polysaccharide Pn32A
Procedure: as §1

[10] = biological target: pneumococcal polysaccharide Pn32F
Procedure: as §1

[11] = biological target: pneumococcal polysaccharide Pn33A
Procedure: as §1

[12] = biological target: pneumococcal polysaccharide Pn33B
Procedure: as §1

[13] = biological target: pneumococcal polysaccharide Pn33C
Procedure: as §1

[14] = biological target: pneumococcal polysaccharide Pn33D
Procedure: as §1

[15] = biological target: pneumococcal polysaccharide Pn33F
Procedure: as §1

[16] = biological target: pneumococcal polysaccharide Pn34
Procedure: as §1

[17] = biological target: pneumococcal polysaccharide Pn35A
Procedure: as §1

[18] = biological target: pneumococcal polysaccharide Pn35B
Procedure: as §1

[19] = biological target: pneumococcal polysaccharide Pn35C
Procedure: as §1

[20] = biological target: pneumococcal polysaccharide Pn35F
Procedure: as §1

[21] = biological target: pneumococcal polysaccharide Pn36
Procedure: as §1

[22] = biological target: pneumococcal polysaccharide Pn37
Procedure: as §1

[23] = biological target: pneumococcal polysaccharide Pn38
Procedure: as §1

[24] = antibody concentration 0.1 ng/mL
[25] = antibody concentration 0.534724 ng/mL
[26] = antibody concentration 2.8593 ng/mL
[27] = antibody concentration 15.2894 ng/mL
[28] = antibody concentration 81.7561 ng/mL
[29] = antibody concentration 437.17 ng/mL
[30] = antibody concentration 2337.65 ng/mL
[31] = antibody concentration 12500 ng/mL

B1: 4-99.5 (protein)
chain 1: QVQLQESGPGLVKPSETLSLTCAVSGYSISSGYYWGWIRQPPGKGLEYIGYISGSSGSPYYNPSLKSRVTISKDTSKNQFSLKLSSATAADTAVYYCARRQVGIGFDYWGQGVLVTVSS
chain 2: QAAPTQPPSVSGSPGQSVTISCTGTSSDIGYYNAVSWYQQHPGKAPKLMIYEVSKRPSGVSDRFSGSKSGNTASLTISGLQAEDEADYYCSSYAGSNTYIFGAGTRLTVL
- fluorescence intensity [1, 24]: 23.8 MFI
- fluorescence intensity [1, 25]: 25.5 MFI
- fluorescence intensity [1, 26]: 25 MFI
- fluorescence intensity [1, 27]: 24.5 MFI
- fluorescence intensity [1, 28]: 25.5 MFI
- fluorescence intensity [1, 29]: 25.5 MFI
- fluorescence intensity [1, 30]: 28.5 MFI
- fluorescence intensity [1, 31]: 30.5 MFI
- fluorescence intensity [2, 24]: 31.5 MFI
- fluorescence intensity [2, 25]: 31.5 MFI
- fluorescence intensity [2, 26]: 31.5 MFI
- fluorescence intensity [2, 27]: 32.8 MFI
- fluorescence intensity [2, 28]: 31 MFI
- fluorescence intensity [2, 29]: 31.5 MFI
- fluorescence intensity [2, 30]: 31.5 MFI
- fluorescence intensity [2, 31]: 37 MFI
- fluorescence intensity [3, 24]: 17 MFI
- fluorescence intensity [3, 25]: 16 MFI
- fluorescence intensity [3, 26]: 17 MFI
- fluorescence intensity [3, 27]: 17.2 MFI
- fluorescence intensity [3, 28]: 17.5 MFI
- fluorescence intensity [3, 29]: 19 MFI
- fluorescence intensity [3, 30]: 19.5 MFI
- fluorescence intensity [3, 31]: 42 MFI
- fluorescence intensity [4, 24]: 27.8 MFI
- fluorescence intensity [4, 25]: 28 MFI
- fluorescence intensity [4, 26]: 28.5 MFI
- fluorescence intensity [4, 27]: 27.2 MFI
- fluorescence intensity [4, 28]: 28.2 MFI
- fluorescence intensity [4, 29]: 28.5 MFI
- fluorescence intensity [4, 30]: 29 MFI
- fluorescence intensity [4, 31]: 32.8 MFI
- fluorescence intensity [5, 24]: 29 MFI
- fluorescence intensity [5, 25]: 29.5 MFI
- fluorescence intensity [5, 26]: 30.5 MFI
- fluorescence intensity [5, 27]: 29.8 MFI
- fluorescence intensity [5, 28]: 30 MFI
- fluorescence intensity [5, 29]: 31.5 MFI
- fluorescence intensity [5, 30]: 30.8 MFI
- fluorescence intensity [5, 31]: 40.8 MFI
- fluorescence intensity [6, 24]: 16 MFI
- fluorescence intensity [6, 25]: 17.2 MFI
- fluorescence intensity [6, 26]: 17 MFI
- fluorescence intensity [6, 27]: 16.5 MFI
- fluorescence intensity [6, 28]: 18.2 MFI
- fluorescence intensity [6, 29]: 17 MFI
- fluorescence intensity [6, 30]: 19 MFI
- fluorescence intensity [6, 31]: 31 MFI
- fluorescence intensity [7, 24]: 14 MFI
- fluorescence intensity [7, 25]: 18.8 MFI
- fluorescence intensity [7, 26]: 39 MFI
- fluorescence intensity [7, 27]: 165 MFI
- fluorescence intensity [7, 28]: 718 MFI
- fluorescence intensity [7, 29]: 3200 MFI
- fluorescence intensity [7, 30]: 11000 MFI
- fluorescence intensity [7, 31]: 16500 MFI
- fluorescence intensity [8, 24]: 16 MFI
- fluorescence intensity [8, 25]: 16 MFI
- fluorescence intensity [8, 26]: 14.5 MFI
- fluorescence intensity [8, 27]: 14.5 MFI
- fluorescence intensity [8, 28]: 14.2 MFI
- fluorescence intensity [8, 29]: 15 MFI
- fluorescence intensity [8, 30]: 14.8 MFI
- fluorescence intensity [8, 31]: 27 MFI
- fluorescence intensity [9, 24]: 18 MFI
- fluorescence intensity [9, 25]: 18.2 MFI
- fluorescence intensity [9, 26]: 18 MFI
- fluorescence intensity [9, 27]: 19 MFI
- fluorescence intensity [9, 28]: 19 MFI
- fluorescence intensity [9, 29]: 18 MFI
- fluorescence intensity [9, 30]: 20 MFI
- fluorescence intensity [9, 31]: 29 MFI
- fluorescence intensity [10, 24]: 28.5 MFI
- fluorescence intensity [10, 25]: 29.5 MFI
- fluorescence intensity [10, 26]: 29 MFI
- fluorescence intensity [10, 27]: 27.5 MFI
- fluorescence intensity [10, 28]: 30.2 MFI
- fluorescence intensity [10, 29]: 30 MFI
- fluorescence intensity [10, 30]: 32 MFI
- fluorescence intensity [10, 31]: 44.2 MFI
- fluorescence intensity [11, 24]: 18.5 MFI
- fluorescence intensity [11, 25]: 18 MFI
- fluorescence intensity [11, 26]: 17 MFI
- fluorescence intensity [11, 27]: 17.5 MFI
- fluorescence intensity [11, 28]: 19 MFI
- fluorescence intensity [11, 29]: 21 MFI
- fluorescence intensity [11, 30]: 27.5 MFI
- fluorescence intensity [11, 31]: 130 MFI
- fluorescence intensity [12, 24]: 19 MFI
- fluorescence intensity [12, 25]: 18 MFI
- fluorescence intensity [12, 26]: 18.5 MFI
- fluorescence intensity [12, 27]: 19 MFI
- fluorescence intensity [12, 28]: 18 MFI
- fluorescence intensity [12, 29]: 19.5 MFI
- fluorescence intensity [12, 30]: 18.5 MFI
- fluorescence intensity [12, 31]: 22 MFI
- fluorescence intensity [13, 24]: 19 MFI
- fluorescence intensity [13, 25]: 20 MFI
- fluorescence intensity [13, 26]: 19.5 MFI
- fluorescence intensity [13, 27]: 19 MFI
- fluorescence intensity [13, 28]: 19.2 MFI
- fluorescence intensity [13, 29]: 19.5 MFI
- fluorescence intensity [13, 30]: 20.5 MFI
- fluorescence intensity [13, 31]: 30.5 MFI
- fluorescence intensity [14, 24]: 17 MFI
- fluorescence intensity [14, 25]: 15 MFI
- fluorescence intensity [14, 26]: 15.5 MFI
- fluorescence intensity [14, 27]: 17.8 MFI
- fluorescence intensity [14, 28]: 16.2 MFI
- fluorescence intensity [14, 29]: 16 MFI
- fluorescence intensity [14, 30]: 16.5 MFI
- fluorescence intensity [14, 31]: 21.5 MFI
- fluorescence intensity [15, 24]: 13 MFI
- fluorescence intensity [15, 25]: 13.2 MFI
- fluorescence intensity [15, 26]: 13 MFI
- fluorescence intensity [15, 27]: 14 MFI
- fluorescence intensity [15, 28]: 13.5 MFI
- fluorescence intensity [15, 29]: 14 MFI
- fluorescence intensity [15, 30]: 18 MFI
- fluorescence intensity [15, 31]: 41.5 MFI
- fluorescence intensity [16, 24]: 14 MFI
- fluorescence intensity [16, 25]: 14 MFI
- fluorescence intensity [16, 26]: 14 MFI
- fluorescence intensity [16, 27]: 15 MFI
- fluorescence intensity [16, 28]: 15 MFI
- fluorescence intensity [16, 29]: 16 MFI
- fluorescence intensity [16, 30]: 14.5 MFI
- fluorescence intensity [16, 31]: 17 MFI
- fluorescence intensity [17, 24]: 18 MFI
- fluorescence intensity [17, 25]: 17 MFI
- fluorescence intensity [17, 26]: 16.5 MFI
- fluorescence intensity [17, 27]: 16.8 MFI
- fluorescence intensity [17, 28]: 16.5 MFI
- fluorescence intensity [17, 29]: 17.5 MFI
- fluorescence intensity [17, 30]: 19.2 MFI
- fluorescence intensity [17, 31]: 37.5 MFI
- fluorescence intensity [18, 24]: 18.8 MFI
- fluorescence intensity [18, 25]: 19.5 MFI
- fluorescence intensity [18, 26]: 18 MFI
- fluorescence intensity [18, 27]: 18 MFI
- fluorescence intensity [18, 28]: 18 MFI
- fluorescence intensity [18, 29]: 18 MFI
- fluorescence intensity [18, 30]: 19 MFI
- fluorescence intensity [18, 31]: 33 MFI
- fluorescence intensity [19, 24]: 21.5 MFI
- fluorescence intensity [19, 25]: 21 MFI
- fluorescence intensity [19, 26]: 20.5 MFI
- fluorescence intensity [19, 27]: 20 MFI
- fluorescence intensity [19, 28]: 20 MFI
- fluorescence intensity [19, 29]: 20.5 MFI
- fluorescence intensity [19, 30]: 20.5 MFI
- fluorescence intensity [19, 31]: 25 MFI
- fluorescence intensity [20, 24]: 24 MFI
- fluorescence intensity [20, 25]: 19 MFI
- fluorescence intensity [20, 26]: 17.5 MFI
- fluorescence intensity [20, 27]: 19.8 MFI
- fluorescence intensity [20, 28]: 20.2 MFI
- fluorescence intensity [20, 29]: 20.2 MFI
- fluorescence intensity [20, 30]: 21 MFI
- fluorescence intensity [20, 31]: 24 MFI
- fluorescence intensity [21, 24]: 16.2 MFI
- fluorescence intensity [21, 25]: 16.5 MFI
- fluorescence intensity [21, 26]: 16 MFI
- fluorescence intensity [21, 27]: 16.2 MFI
- fluorescence intensity [21, 28]: 16 MFI
- fluorescence intensity [21, 29]: 17.5 MFI
- fluorescence intensity [21, 30]: 18 MFI
- fluorescence intensity [21, 31]: 25.2 MFI
- fluorescence intensity [22, 24]: 26.5 MFI
- fluorescence intensity [22, 25]: 28.5 MFI
- fluorescence intensity [22, 26]: 26 MFI
- fluorescence intensity [22, 27]: 27.2 MFI
- fluorescence intensity [22, 28]: 26.5 MFI
- fluorescence intensity [22, 29]: 26 MFI
- fluorescence intensity [22, 30]: 29.8 MFI
- fluorescence intensity [22, 31]: 80.2 MFI
- fluorescence intensity [23, 24]: 27.8 MFI
- fluorescence intensity [23, 25]: 26 MFI
- fluorescence intensity [23, 26]: 25 MFI
- fluorescence intensity [23, 27]: 25.5 MFI

From the supplement of paper PMC11438910
